Values from PubChem BioAssay AID1224830 (NIAID, 2016).

Aim: 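Genes whose knock-down alters the TNF-alpha reporter response to LPS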 (primary screen)
Cell system: human THP-1 monocytic leukaemia cells, TNF dual-luciferase reporter clone, PMA-differentiated to macrophage-like cells
Reagent: siRNA pool against human genes, 50 nM
Time to read-out: LPS for 4 h, given about 3 days after siRNA transfection
Treatment: bacterial LPS (TLR4 ligand), 10 ng/ml
Measurement: 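TNF firefly reporter luminescence divided by renilla, normalised to the plate median, then turned into a robust z-score for each replicate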
Direction: TNF reporter robust z-score: higher = stronger TNF reporter response to LPS
Call rule: 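a well is active when its z-score exceeds 2.8 or falls below -1.5; control wells carry no call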
In all, the deposit lists about 18,000 reagents; below is a part drawn at random. About 2,900 of all reagents (16%) were called active. 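Calls are made per well; low scores hint the gene aids the LPS response, high scores that it dampens it.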 Entries without a mark were called inactive. Repeated entries: four replicate wells of each siRNA pool.

| gene | TNF reporter robust z-score |
| --- | --- |
| EFCC1 | 0 |
| EFCC1 | 1.42 |
| EFCC1 | -0.2 |
| EFCC1 | 1.31 |
| KRTAP9-3 | 0.18 |
| KRTAP9-3 | 0.37 |
| KRTAP9-3 | 0.63 |
| KRTAP9-3 | 0.48 |
| XCL2 | -0.9 |
| XCL2 | -1.01 |
| XCL2 | -0.87 |
| XCL2 | -0.5 |
| ARPC5 | 3.04 (active) |
| ARPC5 | 1.35 |
| ARPC5 | 0.1 |
| ARPC5 | 1.89 |
| SMARCC1 | 0.58 |
| SMARCC1 | 2.15 |
| SMARCC1 | 0.44 |
| SMARCC1 | 1.21 |
| COQ2 | -0.95 |
| COQ2 | -1.18 |
| COQ2 | -1 |
| COQ2 | -0.98 |
| POU4F3 | 1.78 |
| POU4F3 | 1.01 |
| POU4F3 | 1.28 |
| POU4F3 | 0.24 |
| CEP135 | 1.18 |
| CEP135 | 4.86 (active) |
| CEP135 | 5.04 (active) |
| CEP135 | 0.93 |
| HCAR1 | 0.55 |
| HCAR1 | 0.11 |
| HCAR1 | 1.47 |
| HCAR1 | 1.19 |
| IFNA2 | -0.74 |
| IFNA2 | 0.2 |
| IFNA2 | -0.98 |
| IFNA2 | -0.16 |

No new results follow: 11 of the entries above.
| gene | TNF reporter robust z-score |
| --- | --- |
| XCL2 | -1.01 |
| XCL2 | -0.87 |
| XCL2 | -0.5 |
| ARPC5 | 3.04 (active) |
| ARPC5 | 1.35 |
| ARPC5 | 0.1 |
| ARPC5 | 1.89 |
| SMARCC1 | 0.58 |
| SMARCC1 | 2.15 |
| SMARCC1 | 0.44 |
| SMARCC1 | 1.21 |

Continued:
| gene | TNF reporter robust z-score |
| --- | --- |
| FKBP14 | -0.25 |
| FKBP14 | 2.18 |
| FKBP14 | 0.28 |
| FKBP14 | 2.14 |
| BEND3 | 1.36 |
| BEND3 | 1.57 |
| BEND3 | -0.75 |
| BEND3 | 0.08 |
| TRIM42 | 3.65 (active) |
| TRIM42 | 1.33 |
| TRIM42 | -1.35 |
| TRIM42 | 1.88 |
| SLC25A40 | 2.16 |
| SLC25A40 | -0.58 |
| SLC25A40 | -0.19 |
| SLC25A40 | -0.71 |
| LAMC2 | -0.1 |
| LAMC2 | 0.15 |
| LAMC2 | -0.08 |
| LAMC2 | 1.07 |
| E2F7 | -1.14 |
| E2F7 | 0.4 |
| E2F7 | -0.17 |
| E2F7 | -0.29 |
| SRF | -0.32 |
| SRF | -0.04 |
| SRF | -0.33 |
| SRF | -0.01 |
| RSPH1 | -0.48 |
| RSPH1 | 0.53 |
| RSPH1 | 0.12 |
| RSPH1 | 0.44 |
| LIN28A | -0.29 |
| LIN28A | -0.17 |
| LIN28A | -0.19 |
| LIN28A | 0.09 |
| SLC4A2 | 0.04 |
| SLC4A2 | 2.74 |
| SLC4A2 | 0.56 |
| SLC4A2 | 1.61 |
| TMEM245 | -0.47 |
| TMEM245 | 0.18 |
| TMEM245 | 0.04 |
| TMEM245 | 0.85 |
| WASHC2A | -0.8 |
| WASHC2A | -0.38 |
| WASHC2A | -0.93 |
| WASHC2A | -1.36 |
| WDHD1 | -0.51 |
| WDHD1 | -0.59 |
| WDHD1 | -0.96 |
| WDHD1 | -0.16 |
| GAB3 | 0.95 |
| GAB3 | 1.72 |
| GAB3 | 2.02 |
| GAB3 | 2.28 |
| SPART | 4.38 (active) |
| SPART | 2.48 |
| SPART | -0.34 |
| SPART | 3.18 (active) |
| GPT2 | 0.68 |
| GPT2 | 0.04 |
| GPT2 | 0.11 |
| GPT2 | 2.35 |
| AVIL | 0.06 |
| AVIL | 0.65 |
| AVIL | 0.01 |
| AVIL | 0.52 |
| PIGH | 1.38 |
| PIGH | 2.81 (active) |
| PIGH | 1.69 |
| PIGH | 3.98 (active) |
